Measured values as given in patent publication US20250051429A1.
These are yes or no findings as the source states them, for the method shown. Some entries that bind do so weakly or less than the wild type.

Amino acid sequences for entries named in this document (tags omitted). Residues count along the entry.
UniProt P05067, residues 672-713: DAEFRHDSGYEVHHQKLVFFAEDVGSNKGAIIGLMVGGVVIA

Key:
[1] = target: A-beta plaques in brain sections (in vitro plaque decoration) (human) (UniProt P05067); test: specific plaque staining of brain sections, antibody concentration 1.0
[2] = target: A-beta plaques in brain sections (in vitro plaque decoration) (human) (UniProt P05067); test: in vitro plaque decoration/background, qualitative grade
[3] = target: A-beta plaques in brain sections (in vitro plaque decoration) (human) (UniProt P05067); test: in vitro plaque decoration of brain sections
[4] = target: A-beta plaques in brain sections (in vitro plaque decoration) (human) (UniProt P05067); test: specific plaque staining of brain sections, antibody concentration 0.1
[5] = target: human A-beta protein, fibrillar A-beta(1-40) coated for the ELISA (human); test: in vitro binding (ELISA)
[6] = target: human A-beta protein, fibrillar A-beta(1-40) coated for the ELISA (human); test: A-beta binding (ELISA), qualitative grade

binding [1]	binding [2]	binding [3]	binding [4]	binding [5]	binding [6]	Binder
binds	binds	binds	binds	binds	binds	mAb 663 (antibody, V domains shown, no Fab glycosylation (CE-SDS 0 %)) VH: QVELVESGGGLVQPGGSLRLSCAASGFTFSSYAMSWVRQAPGKGLEWVSAIQASGTRTYYADSVKGRFTISRDNSKNTLYLQMNSLRAEDTAVYYCARGKGSSGYVRYFDVWGQGTLVTVSS VL: DIVLTQSPATLSLSPGERATLSCRASQSVSSSYLAWYQQKPGQAPRLLIYGASSRATGVPARFSGSGSGTDFTLTISSLEPEDFATYYCLQIYNMPITFGQGTKVEIK
binds	binds	binds	binds	binds	binds	mAb 638 (antibody, V domains shown, no Fab glycosylation (CE-SDS 0 %)) VH: QVELVESGGGLVQPGGSLRLSCAASGFTFSSYAMSWVRQAPGKGLEWVSAIQASGTRTYYADSVKGRFTISRDNSKNTLYLQMNSLRAEDTAVYYCARGKGSSGYVRYFDVWGQGTLVTVSS VL: DIVLTQSPATLSLSPGERATLSCRASQSVSSSYLAWYQQKPGQAPRLLIYGASSRATGVPARFSGSGSGTDFTLTISSLEPEDFATYYCLQIYNHPITFGQGTKVEIK

The remaining lines, values behind:

Binder	binding [1]	binding [2]	binding [3]	binding [4]	binding [5]	binding [6]
mAb 651 (antibody, V domains shown, glycosylation site in heavy chain CDR2 (NAT); Fab glycosylation (CE-SDS) 100 %) VH: QVELVESGGGLVQPGGSLRLSCAASGFTFSSYAMSWVRQAPGKGLEWVSAINATGTRTYYADSVKGRFTISRDNSKNTLYLQMNSLRAEDTAVYYCARGKGSSGYVRYFDVWGQGTLVTVSS VL: DIVLTQSPATLSLSPGERATLSCRASQSVSSSYLAWYQQKPGQAPRLLIYGASSRATGVPARFSGSGSGTDFTLTISSLEPEDFATYYCLQIYNHPITFGQGTKVEIK	–	–	–	–	–	binds
mAb 675 (antibody, V domains shown, glycosylation site in heavy chain CDR2 (NAT); Fab glycosylation (CE-SDS) 100 %) VH: QVELVESGGGLVQPGGSLRLSCAASGFTFSSYAMSWVRQAPGKGLEWVSAINATGTRTYYADSVKGRFTISRDNSKNTLYLQMNSLRAEDTAVYYCARGKGSSGYVRYFDVWGQGTLVTVSS VL: DIVLTQSPATLSLSPGERATLSCRASQSVSSSYLAWYQQKPGQAPRLLIYGASSRATGVPARFSGSGSGTDFTLTISSLEPEDFATYYCLQIYNMPITFGQGTKVEIK	binds	binds	binds	binds	binds	binds
gantenerumab (antibody, human IgG1, V domains shown, glycosylation site in heavy chain CDR2 (NAS); Fab glycosylation (CE-SDS) 30-80 %) VH: QVELVESGGGLVQPGGSLRLSCAASGFTFSSYAMSWVRQAPGKGLEWVSAINASGTRTYYADSVKGRFTISRDNSKNTLYLQMNSLRAEDTAVYYCARGKGNTHKPYGYVRYFDVWGQGTLVTVSS VL: DIVLTQSPATLSLSPGERATLSCRASQSVSSSYLAWYQQKPGQAPRLLIYGASSRATGVPARFSGSGSGTDFTLTISSLEPEDFATYYCLQIYNMPITFGQGTKVEIK	binds	binds	binds	binds	–	binds
